Measurements from the supplement of paper PMC12067093, “Discovery and optimisation of a covalent ligand for TRIM25 and its application to targeted protein ubiquitination” (Chemical Science, 2025).
The other results are listed elsewhere or left out.

Protein sequences, listed by entry. Tags and fused reporters are not part of them. Lines headed by an entry give the natural chain unless they say otherwise; changes in a name come on top.
UniProt Q15052: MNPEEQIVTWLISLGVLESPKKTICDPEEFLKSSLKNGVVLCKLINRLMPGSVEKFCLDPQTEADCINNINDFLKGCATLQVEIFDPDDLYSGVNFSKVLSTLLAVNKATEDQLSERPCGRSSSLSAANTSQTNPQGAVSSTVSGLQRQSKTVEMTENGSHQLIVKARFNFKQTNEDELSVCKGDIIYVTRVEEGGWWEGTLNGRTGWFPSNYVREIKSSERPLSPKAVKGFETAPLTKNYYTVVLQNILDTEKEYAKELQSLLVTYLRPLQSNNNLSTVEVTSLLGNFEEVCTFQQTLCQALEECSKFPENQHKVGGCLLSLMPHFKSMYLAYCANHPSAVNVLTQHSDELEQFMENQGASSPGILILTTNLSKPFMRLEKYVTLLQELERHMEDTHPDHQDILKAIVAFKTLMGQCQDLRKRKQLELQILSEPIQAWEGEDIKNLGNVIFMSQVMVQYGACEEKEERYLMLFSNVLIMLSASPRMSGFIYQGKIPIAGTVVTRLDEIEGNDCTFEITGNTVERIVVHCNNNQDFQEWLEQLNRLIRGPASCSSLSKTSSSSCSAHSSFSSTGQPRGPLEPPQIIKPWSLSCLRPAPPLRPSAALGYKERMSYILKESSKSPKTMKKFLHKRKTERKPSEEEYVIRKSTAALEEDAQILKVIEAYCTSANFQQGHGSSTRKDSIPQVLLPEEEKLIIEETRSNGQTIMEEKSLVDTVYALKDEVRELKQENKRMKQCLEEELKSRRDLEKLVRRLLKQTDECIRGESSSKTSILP
UniProt Q92619: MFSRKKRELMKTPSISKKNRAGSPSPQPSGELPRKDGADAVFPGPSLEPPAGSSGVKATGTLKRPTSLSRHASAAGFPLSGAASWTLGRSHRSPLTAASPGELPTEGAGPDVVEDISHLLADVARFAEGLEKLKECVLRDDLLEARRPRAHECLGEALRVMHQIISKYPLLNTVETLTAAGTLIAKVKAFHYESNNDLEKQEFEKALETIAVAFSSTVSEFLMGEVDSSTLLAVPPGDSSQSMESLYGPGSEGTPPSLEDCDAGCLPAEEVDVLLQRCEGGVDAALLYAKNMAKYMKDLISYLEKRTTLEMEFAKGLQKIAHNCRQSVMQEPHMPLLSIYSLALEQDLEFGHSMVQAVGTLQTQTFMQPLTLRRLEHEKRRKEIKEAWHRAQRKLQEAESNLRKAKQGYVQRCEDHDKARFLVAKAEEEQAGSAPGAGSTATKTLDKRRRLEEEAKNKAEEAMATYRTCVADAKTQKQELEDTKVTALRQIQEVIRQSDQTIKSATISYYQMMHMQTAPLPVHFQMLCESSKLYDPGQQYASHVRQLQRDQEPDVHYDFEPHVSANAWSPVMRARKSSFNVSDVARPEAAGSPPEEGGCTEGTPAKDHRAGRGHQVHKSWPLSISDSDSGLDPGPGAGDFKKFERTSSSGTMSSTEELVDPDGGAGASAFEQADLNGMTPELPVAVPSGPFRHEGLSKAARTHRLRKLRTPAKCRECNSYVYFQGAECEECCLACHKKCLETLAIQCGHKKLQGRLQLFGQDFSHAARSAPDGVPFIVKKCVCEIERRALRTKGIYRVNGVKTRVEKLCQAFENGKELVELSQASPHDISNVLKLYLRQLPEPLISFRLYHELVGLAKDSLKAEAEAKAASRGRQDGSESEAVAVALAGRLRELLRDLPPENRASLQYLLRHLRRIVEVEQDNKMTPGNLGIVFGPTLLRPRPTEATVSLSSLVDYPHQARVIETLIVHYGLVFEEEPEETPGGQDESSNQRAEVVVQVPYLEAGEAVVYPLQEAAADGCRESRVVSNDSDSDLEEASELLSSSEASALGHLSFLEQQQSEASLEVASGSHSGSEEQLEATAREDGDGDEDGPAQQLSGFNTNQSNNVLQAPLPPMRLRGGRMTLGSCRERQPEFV
UniProt Q13795: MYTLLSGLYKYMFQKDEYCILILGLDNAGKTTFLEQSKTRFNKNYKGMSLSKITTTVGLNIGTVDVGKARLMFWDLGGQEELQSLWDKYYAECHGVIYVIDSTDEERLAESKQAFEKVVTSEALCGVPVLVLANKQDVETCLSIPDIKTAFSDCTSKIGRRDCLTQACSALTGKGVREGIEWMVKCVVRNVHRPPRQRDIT
UniProt O95376: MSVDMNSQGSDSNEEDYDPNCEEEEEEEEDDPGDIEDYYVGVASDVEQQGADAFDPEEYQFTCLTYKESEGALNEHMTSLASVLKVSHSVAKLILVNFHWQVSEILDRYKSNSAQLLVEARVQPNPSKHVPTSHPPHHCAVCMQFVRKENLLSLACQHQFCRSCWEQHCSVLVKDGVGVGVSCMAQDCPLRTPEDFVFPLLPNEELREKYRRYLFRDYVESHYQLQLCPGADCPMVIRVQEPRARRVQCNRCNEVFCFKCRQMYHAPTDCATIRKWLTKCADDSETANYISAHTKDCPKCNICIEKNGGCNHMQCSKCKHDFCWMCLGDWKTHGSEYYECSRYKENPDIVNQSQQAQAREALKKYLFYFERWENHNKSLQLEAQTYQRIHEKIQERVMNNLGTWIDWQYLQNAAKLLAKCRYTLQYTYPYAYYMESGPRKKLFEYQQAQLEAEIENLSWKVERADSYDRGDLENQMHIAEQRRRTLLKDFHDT
UniProt Q6ZSZ5: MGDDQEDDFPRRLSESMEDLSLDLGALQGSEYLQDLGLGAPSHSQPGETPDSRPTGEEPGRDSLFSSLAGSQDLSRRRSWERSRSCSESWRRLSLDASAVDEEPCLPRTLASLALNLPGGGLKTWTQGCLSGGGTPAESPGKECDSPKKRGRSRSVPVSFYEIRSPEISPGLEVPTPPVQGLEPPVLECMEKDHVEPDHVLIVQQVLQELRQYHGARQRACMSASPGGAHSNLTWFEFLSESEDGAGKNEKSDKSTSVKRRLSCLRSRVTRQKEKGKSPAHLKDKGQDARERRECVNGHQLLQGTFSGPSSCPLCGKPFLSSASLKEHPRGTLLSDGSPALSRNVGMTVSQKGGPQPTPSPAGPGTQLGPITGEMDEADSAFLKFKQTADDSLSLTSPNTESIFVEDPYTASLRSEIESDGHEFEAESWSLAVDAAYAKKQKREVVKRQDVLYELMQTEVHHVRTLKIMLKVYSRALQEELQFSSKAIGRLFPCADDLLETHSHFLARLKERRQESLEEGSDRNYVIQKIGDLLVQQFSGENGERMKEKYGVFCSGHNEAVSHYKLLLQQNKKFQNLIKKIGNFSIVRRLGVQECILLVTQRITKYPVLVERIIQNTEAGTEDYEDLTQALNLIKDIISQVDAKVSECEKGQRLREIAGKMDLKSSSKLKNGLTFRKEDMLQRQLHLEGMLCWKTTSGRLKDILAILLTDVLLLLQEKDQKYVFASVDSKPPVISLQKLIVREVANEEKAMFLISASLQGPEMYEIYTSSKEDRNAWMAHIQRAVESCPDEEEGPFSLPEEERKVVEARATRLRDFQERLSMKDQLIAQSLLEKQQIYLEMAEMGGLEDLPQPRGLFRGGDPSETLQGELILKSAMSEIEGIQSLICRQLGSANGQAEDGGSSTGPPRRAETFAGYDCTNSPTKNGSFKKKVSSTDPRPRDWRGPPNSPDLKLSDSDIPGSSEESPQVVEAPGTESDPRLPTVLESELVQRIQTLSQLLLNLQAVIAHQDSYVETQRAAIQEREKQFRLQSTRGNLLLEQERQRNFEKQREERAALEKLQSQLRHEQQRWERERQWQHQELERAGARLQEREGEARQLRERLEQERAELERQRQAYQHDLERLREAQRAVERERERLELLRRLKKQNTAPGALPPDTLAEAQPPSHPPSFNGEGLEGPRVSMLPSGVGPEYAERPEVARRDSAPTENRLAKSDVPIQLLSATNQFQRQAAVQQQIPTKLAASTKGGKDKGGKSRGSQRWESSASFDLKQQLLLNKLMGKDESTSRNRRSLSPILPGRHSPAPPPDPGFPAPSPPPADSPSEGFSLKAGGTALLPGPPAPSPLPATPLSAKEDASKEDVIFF
UniProt Q6NXE6: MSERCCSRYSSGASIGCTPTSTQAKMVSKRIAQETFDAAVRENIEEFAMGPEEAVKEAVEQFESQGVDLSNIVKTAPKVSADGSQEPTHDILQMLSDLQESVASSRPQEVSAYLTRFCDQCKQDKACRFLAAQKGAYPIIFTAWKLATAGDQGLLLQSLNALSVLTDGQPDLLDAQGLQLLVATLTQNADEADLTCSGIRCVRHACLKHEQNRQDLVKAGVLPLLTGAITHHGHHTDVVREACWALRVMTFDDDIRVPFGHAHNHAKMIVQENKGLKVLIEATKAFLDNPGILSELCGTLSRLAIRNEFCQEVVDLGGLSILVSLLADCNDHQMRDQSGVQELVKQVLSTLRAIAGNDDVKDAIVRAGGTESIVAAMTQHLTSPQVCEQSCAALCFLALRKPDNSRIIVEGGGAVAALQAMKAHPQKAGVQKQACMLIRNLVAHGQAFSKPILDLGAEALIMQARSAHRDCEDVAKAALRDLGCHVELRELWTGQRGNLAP
UniProt P62330: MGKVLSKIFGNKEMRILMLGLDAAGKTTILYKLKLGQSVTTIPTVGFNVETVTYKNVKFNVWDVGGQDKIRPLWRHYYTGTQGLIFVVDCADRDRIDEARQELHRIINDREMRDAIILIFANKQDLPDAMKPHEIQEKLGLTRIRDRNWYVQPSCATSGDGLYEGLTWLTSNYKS
UniProt Q8WWN8: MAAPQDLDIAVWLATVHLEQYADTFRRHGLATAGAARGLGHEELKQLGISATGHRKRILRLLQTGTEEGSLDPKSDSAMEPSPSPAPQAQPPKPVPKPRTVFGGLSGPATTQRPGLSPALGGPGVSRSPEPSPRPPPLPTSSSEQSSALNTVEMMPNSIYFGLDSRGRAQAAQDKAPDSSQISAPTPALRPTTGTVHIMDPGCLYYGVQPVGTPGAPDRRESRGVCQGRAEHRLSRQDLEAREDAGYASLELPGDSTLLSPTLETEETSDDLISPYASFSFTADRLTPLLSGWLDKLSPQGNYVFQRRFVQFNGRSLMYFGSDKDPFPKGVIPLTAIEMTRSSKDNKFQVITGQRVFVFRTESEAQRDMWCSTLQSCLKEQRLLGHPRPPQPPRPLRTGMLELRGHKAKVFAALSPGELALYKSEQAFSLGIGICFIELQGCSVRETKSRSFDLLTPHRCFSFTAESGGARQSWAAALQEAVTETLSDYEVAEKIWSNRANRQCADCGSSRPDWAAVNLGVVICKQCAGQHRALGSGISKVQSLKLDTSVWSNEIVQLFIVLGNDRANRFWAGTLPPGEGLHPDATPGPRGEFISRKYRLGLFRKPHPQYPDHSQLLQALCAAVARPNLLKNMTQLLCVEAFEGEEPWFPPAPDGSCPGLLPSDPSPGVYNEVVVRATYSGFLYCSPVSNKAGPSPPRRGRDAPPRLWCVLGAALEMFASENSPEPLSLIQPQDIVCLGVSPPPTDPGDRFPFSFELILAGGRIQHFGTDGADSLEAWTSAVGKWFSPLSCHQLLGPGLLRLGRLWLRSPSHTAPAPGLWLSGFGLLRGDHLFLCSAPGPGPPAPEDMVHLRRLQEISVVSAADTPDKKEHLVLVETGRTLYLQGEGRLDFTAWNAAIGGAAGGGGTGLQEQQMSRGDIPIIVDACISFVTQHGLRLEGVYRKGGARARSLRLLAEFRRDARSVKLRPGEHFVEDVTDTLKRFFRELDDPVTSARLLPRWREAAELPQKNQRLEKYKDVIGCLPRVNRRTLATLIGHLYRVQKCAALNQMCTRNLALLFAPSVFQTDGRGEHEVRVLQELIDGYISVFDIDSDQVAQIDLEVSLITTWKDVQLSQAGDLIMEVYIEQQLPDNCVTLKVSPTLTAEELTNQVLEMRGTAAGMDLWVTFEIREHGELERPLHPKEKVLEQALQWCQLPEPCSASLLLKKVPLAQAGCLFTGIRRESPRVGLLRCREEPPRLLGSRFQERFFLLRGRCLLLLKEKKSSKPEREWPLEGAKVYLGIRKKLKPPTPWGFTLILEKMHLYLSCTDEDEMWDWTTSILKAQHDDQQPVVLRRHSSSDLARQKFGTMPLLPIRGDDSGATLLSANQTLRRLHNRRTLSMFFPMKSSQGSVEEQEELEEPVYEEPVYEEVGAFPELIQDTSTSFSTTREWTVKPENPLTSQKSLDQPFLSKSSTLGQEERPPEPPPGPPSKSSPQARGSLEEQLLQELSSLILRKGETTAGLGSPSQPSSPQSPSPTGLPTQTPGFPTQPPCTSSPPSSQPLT
UniProt P07741: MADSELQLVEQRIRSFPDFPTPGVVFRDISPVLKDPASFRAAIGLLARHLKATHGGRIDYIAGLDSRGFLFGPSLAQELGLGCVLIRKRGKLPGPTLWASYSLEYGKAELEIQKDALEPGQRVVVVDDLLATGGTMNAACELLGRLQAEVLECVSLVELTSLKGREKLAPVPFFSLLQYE
UniProt P40616: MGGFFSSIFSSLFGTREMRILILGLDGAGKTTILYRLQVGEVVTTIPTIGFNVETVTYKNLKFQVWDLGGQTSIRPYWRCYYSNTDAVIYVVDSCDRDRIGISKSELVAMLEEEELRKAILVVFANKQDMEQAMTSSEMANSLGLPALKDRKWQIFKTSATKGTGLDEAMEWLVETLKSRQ

Compound: Cc1cc(ccc1-c1ccccc1)C(=O)N1CCCN(CC1)C(=O)CCl [compound 10]
Experiment: probe-labelled cysteine peptide fold change vs DMSO (competition) (log2 fold change); higher = less target engagement (more negative = stronger competition)
Details: THP-1, incubation time: 4 h
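Note: competitive profiling in live THP-1 cells: cysteine peptides tagged with an iodoacetamide desthiobiotin (IA-DTB) probe, intensity after compound treatment relative to DMSO-treated cells.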

Row | Target | probe-labelled cysteine peptide fold change (10 µM) | probe-labelled cysteine peptide fold change (50 µM)
1 | ARHGDIB_P52566_76_LTLVCESAPGPITMDLTGDLEALK (UniProt P52566) | 0.0549 | 0.287
2 | ARL14EP_Q8N8R7_5_MMDPCSVGVQLR (UniProt Q8N8R7) | 0.353 | -0.0951
3 | ARHGEF6_Q15052_25_KTICDPEEFLK (UniProt Q15052) | -0.21 | -0.873
4 | ARHGAP45_Q92619_278_CEGGVDAALLYAK (UniProt Q92619) | -0.0931 | -0.411
5 | ARRB1_P49407_251+269_CPVAMEEADDTVAPSSTFCK (UniProt P49407) | 0.144 | -0.227
6 | ARHGEF6_Q15052_319_VGGCLLSLMPHFK (UniProt Q15052) | -0.297 | -0.105
7 | ARHGEF1_Q92888_595_EKVELAAECCR (UniProt Q92888) | 0.135 | -0.557
8 | APPL1_Q9UKG1_368_KDHEEWICTINNISK (UniProt Q9UKG1) | -0.00318 | -0.0957
9 | ARFGEF2_Q9Y6D5_1617_LLDCLQESHSFSK (UniProt Q9Y6D5) | 0.088 | -0.132
10 | ARAP1_Q96P48_774_RWCVLGDGVLSYFENER (UniProt Q96P48) | -0.00746 | 0.00922
11 | APPL2_Q8NEU8_606_ICYAINLGK (UniProt Q8NEU8) | 0.187 | 0.176
12 | ARL6_Q9H0F7_148_VSQLLCLENIK (UniProt Q9H0F7) | -0.0609 | -0.0738
13 | ARPC1A_Q92747_279_GCLTFVSK (UniProt Q92747) | -0.013 | 0.00475
14 | ARFRP1_Q13795_125_VVTSEALCGVPVLVLANK (UniProt Q13795) | -0.0685 | -0.232
15 | ARHGEF10_O15013_809_AADCCR (UniProt O15013) | -0.155 | -0.633
16 | ARIH2_O95376_310_NGGCNHMQCSK (UniProt O95376) | 0.0253 | -0.208
17 | ARHGAP25_P42331_89_AQQLYYYKDEEDTKPQGCMYLPGCTIK (UniProt P42331) | 0.0868 | -0.124
18 | ARHGAP45_Q92619_528_SATISYYQMMHMQTAPLPVHFQMLCESSK (UniProt Q92619) | -0.125 | -0.0917
19 | ARHGEF12_Q9NZN5_784_EVLLGLKPCEIKR (UniProt Q9NZN5) | -0.122 | -0.578
20 | ARHGEF10L_Q9HCE6_1236_EICSVAIISGGQGYR (UniProt Q9HCE6) | -0.0839 | -0.0779
21 | ARIH1_Q9Y4X5_357_DGGCNHMVCR (UniProt Q9Y4X5) | -0.0325 | -0.243

Row | Target | probe-labelled cysteine peptide fold change (10 µM) | probe-labelled cysteine peptide fold change (50 µM)
22 | ARID1B_Q8NFD5_1093_LYVCVK (UniProt Q8NFD5) | 0.173 | 0.358
23 | ARHGEF6_Q15052_25_TICDPEEFLK (UniProt Q15052) | -0.182 | -0.254
24 | ARL14EP_Q8N8R7_5_MDPCSVGVQLR (UniProt Q8N8R7) | -0.166 | -0.127
25 | ARHGEF18_Q6ZSZ5_887_SAMSEIEGIQSLICR (UniProt Q6ZSZ5) | -0.16 | -0.241
26 | ARMC6_Q6NXE6_484_DLGCHVELR (UniProt Q6NXE6) | -0.222 | -0.573
27 | ARL6IP4_Q66PJ3-3_220_NCSASTSQER (UniProt Q66PJ3) | -0.274 | -0.819
28 | ARF6_P62330_90_HYYTGTQGLIFVVDCADRDRIDEAR (UniProt P62330) | 0.0501 | -0.303
29 | APPL1_Q9UKG1_183_QHQTMMHYFCALNTLQYK (UniProt Q9UKG1) | -0.0142 | 0.0612
30 | ARHGAP45_Q92619_809_LCQAFENGK (UniProt Q92619) | 0.077 | 0.0355
31 | ARPC1B_O15143_227_VAWVSHDSTVCLADADKK (UniProt O15143) | 0.103 | -0.0807
32 | ARAP1_Q96P48_803_ASEIVCLAVPPPDTHGFEHTFEVYTEGER (UniProt Q96P48) | -0.273 | 0.107
33 | APTX_Q7Z2E3_333+336_CHECQQLLPSIPQLK (UniProt Q7Z2E3) | -0.0163 | -0.255
34 | ARMT1_Q9H993_398_WEFSVPFHQALNGFHPAPLCTIR (UniProt Q9H993) | -0.184 | -0.061
35 | ARAP1_Q96P48_900_AVFPEGPCEEPLQLRK (UniProt Q96P48) | -0.188 | -0.248
36 | ARF6_P62330_90_HYYTGTQGLIFVVDCADRDR (UniProt P62330) | 0.104 | 0.378
37 | ARAP3_Q8WWN8_527_QCAGQHR (UniProt Q8WWN8) | -0.193 | 0.337
38 | APTX_Q7Z2E3_333_CHECQQLLPSIPQLK (UniProt Q7Z2E3) | 0.0542 | -0.134
39 | ARHGEF18_Q6ZSZ5_105_RLSLDASAVDEEPCLPR (UniProt Q6ZSZ5) | 0.0861 | 0.0274
40 | ARFGEF1_Q9Y6D6_102_IVSTSLDCLQK (UniProt Q9Y6D6) | 0.0609 | 0.0686
41 | ARHGEF10L_Q9HCE6_988_TLLSLEDAVWASCGPR (UniProt Q9HCE6) | -0.485 | -0.205
42 | AQR_O60306_28_IVAPTVSQINAEFVTQLACK (UniProt O60306) | 0.0505 | -0.000724

Row | Target | probe-labelled cysteine peptide fold change (10 µM) | probe-labelled cysteine peptide fold change (50 µM)
43 | ARHGAP4_P98171_855_CLVPASPEQHVEVDK (UniProt P98171) | -0.453 | -0.365
44 | ARPC1A_Q92747_70_IVTCGADR (UniProt Q92747) | -0.0719 | -0.101
45 | ARHGEF1_Q92888_752_KNWCALITETAGSLK (UniProt Q92888) | -0.22 | -0.795
46 | AQR_O60306_1039_IIAMTCTHAALKR (UniProt O60306) | 0.202 | 0.116
47 | ARHGAP25_P42331_448_CFLTSAFQGANSSK (UniProt P42331) | -0.526 | -1.52
48 | ARHGAP45_Q92619_153_AHECLGEALR (UniProt Q92619) | -0.0917 | -0.0239
49 | ARPC4_P59998_21_ATLQAALCLENFSSQVVER (UniProt P59998) | 0.202 | 0.252
50 | ARMC7_Q9H6L4_144_SFLPELTATPVVQCMLR (UniProt Q9H6L4) | 0.439 | 0.341
51 | ARHGAP30_Q7Z6I6_965_IHVAPANPCPR (UniProt Q7Z6I6) | -0.113 | -0.2
52 | APRT_P07741_140_VVVVDDLLATGGTMNAACELLGR (UniProt P07741) | 0.0316 | 0.118
53 | ARHGEF2_Q92974_383_RHGVQECILLVTQR (UniProt Q92974) | 0.0536 | 0.395
54 | ARAP3_Q8WWN8_835_GDHLFLCSAPGPGPPAPEDMVHLR (UniProt Q8WWN8) | -0.23 | -0.0406
55 | ARMC8_Q8IUR7_578_EQTLCILANIADGTTAK (UniProt Q8IUR7) | -0.0305 | 0.351
56 | ARIH2_O95376_323_HDFCWMCLGDWK (UniProt O95376) | -0.12 | 0.00552
57 | ARHGAP17_Q68EM7_53_LVACFQGQHGTDAERR (UniProt Q68EM7) | 0.0758 | -0.131
58 | ARHGAP4_P98171_569_VSEIRDAFERGEDPLVEGCTAHDLDSVAGVLK (UniProt P98171) | -0.105 | -0.434
59 | APTX_Q7Z2E3_286_LGYHAIPSMSHVHLHVISQDFDSPCLK (UniProt Q7Z2E3) | -0.158 | -0.00366
60 | ARIH1_Q9Y4X5_281_WCPAPDCHHVVK (UniProt Q9Y4X5) | -0.0464 | -0.0371
61 | ARID1B_Q8NFD5_1141_QYIQYLFAFECK (UniProt Q8NFD5) | 0.186 | 0.236
62 | APPL1_Q9UKG1_603_SESNLSSVCYIFESNNEGEK (UniProt Q9UKG1) | -0.0801 | 0.249
63 | ARL5A_Q9Y689_132_ECMTVAEISQFLK (UniProt Q9Y689) | 0.0165 | 0.24

Pulled one by one from above (5):
Row | Target | probe-labelled cysteine peptide fold change (10 µM) | probe-labelled cysteine peptide fold change (50 µM)
39 | ARHGEF18_Q6ZSZ5_105_RLSLDASAVDEEPCLPR (UniProt Q6ZSZ5) | 0.0861 | 0.0274
4 | ARHGAP45_Q92619_278_CEGGVDAALLYAK (UniProt Q92619) | -0.0931 | -0.411
61 | ARID1B_Q8NFD5_1141_QYIQYLFAFECK (UniProt Q8NFD5) | 0.186 | 0.236
8 | APPL1_Q9UKG1_368_KDHEEWICTINNISK (UniProt Q9UKG1) | -0.00318 | -0.0957
37 | ARAP3_Q8WWN8_527_QCAGQHR (UniProt Q8WWN8) | -0.193 | 0.337

Continued.

Row | Target | probe-labelled cysteine peptide fold change (10 µM) | probe-labelled cysteine peptide fold change (50 µM)
64 | APRT_P07741_83_GFLFGPSLAQELGLGCVLIR (UniProt P07741) | 0.24 | 0.0921
65 | ARFGEF1_Q9Y6D6_1729_QETSSLACGLR (UniProt Q9Y6D6) | -0.151 | 0.114
66 | APTX_Q7Z2E3_161_DAAQEAEAGTGLEPGSNSGQCSVPLK (UniProt Q7Z2E3) | -0.585 | 0.317
67 | ARHGEF18_Q6ZSZ5_788_AVESCPDEEEGPFSLPEEERK (UniProt Q6ZSZ5) | -0.137 | 0.0513
68 | ARL14EP_Q8N8R7_17_TTNECHK (UniProt Q8N8R7) | 0.04 | -0.0714
69 | APP_P05067_117_CLVGEFVSDALLVPDK (UniProt P05067) | -0.46 | -0.535
70 | ARHGAP11A_Q6P4F7_451_EVNGCSGVNR (UniProt Q6P4F7) | -0.149 | -0.292
71 | ARHGEF7_Q14155_490_TLGNVTYMSQVLIQCAGSEEK (UniProt Q14155) | -0.204 | -1.18
72 | ARL1_P40616_80+95_CYYSNTDAVIYVVDSCDRDR (UniProt P40616) | -0.17 | -0.252
73 | ARAP1_Q96P48_1176_VAGTASGTQHAGDFICTVYLEEK (UniProt Q96P48) | 0.208 | 0.0369
74 | ARNT_P27540_62_CDDDQMSNDK (UniProt P27540) | -0.196 | -0.325
75 | ARPC1A_Q92747_340_NTALETLHQNSITQVSIYEVDKQDCR (UniProt Q92747) | -0.0906 | -0.158
76 | ARID4B_Q4LE39_107_SSLCLK (UniProt Q4LE39) | 0.0531 | -0.0592
77 | ARCN1_P48444_9_VLLAAAVCTK (UniProt P48444) | 0.0514 | 0.0775
78 | ARID2_Q68CP9_525_FACQWLNAHFEVNPDCSVSR (UniProt Q68CP9) | 0.229 | 0.283
79 | ARL1_P40616_80_CYYSNTDAVIYVVDSCDRDR (UniProt P40616) | 0.0978 | -0.3
80 | ARFRP1_Q13795_141_QDVETCLSIPDIK (UniProt Q13795) | -0.0506 | 0.434
81 | ARMC6_Q6NXE6_121_FCDQCK (UniProt Q6NXE6) | -0.142 | -0.663
82 | ARIH2_O95376_340_THGSEYYECSR (UniProt O95376) | -0.0814 | -0.191
83 | ARHGAP30_Q7Z6I6_1021_TQTCTEGGDYCLIPR (UniProt Q7Z6I6) | -0.16 | -0.29
